The values that follow come from article PMC5406017.

Chains of the proteins cited; added tags and fusions are not shown. Lines headed by an entry give the natural chain unless they say otherwise; changes in a name come on top.
UniProt Q24547: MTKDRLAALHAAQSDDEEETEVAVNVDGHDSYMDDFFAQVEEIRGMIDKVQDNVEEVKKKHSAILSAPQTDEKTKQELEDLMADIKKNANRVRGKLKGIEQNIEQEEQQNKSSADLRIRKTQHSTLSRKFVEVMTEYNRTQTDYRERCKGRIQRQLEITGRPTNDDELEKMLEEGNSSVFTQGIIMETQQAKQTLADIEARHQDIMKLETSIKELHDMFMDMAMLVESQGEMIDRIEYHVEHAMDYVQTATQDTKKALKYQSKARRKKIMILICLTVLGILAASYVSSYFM
UniProt Q9VH76: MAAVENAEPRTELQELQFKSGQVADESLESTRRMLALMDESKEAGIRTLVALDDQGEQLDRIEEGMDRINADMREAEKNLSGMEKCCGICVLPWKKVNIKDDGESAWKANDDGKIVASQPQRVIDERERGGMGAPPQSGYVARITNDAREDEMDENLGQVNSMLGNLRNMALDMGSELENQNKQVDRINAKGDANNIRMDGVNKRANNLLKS
UniProt A0A0B4LF19: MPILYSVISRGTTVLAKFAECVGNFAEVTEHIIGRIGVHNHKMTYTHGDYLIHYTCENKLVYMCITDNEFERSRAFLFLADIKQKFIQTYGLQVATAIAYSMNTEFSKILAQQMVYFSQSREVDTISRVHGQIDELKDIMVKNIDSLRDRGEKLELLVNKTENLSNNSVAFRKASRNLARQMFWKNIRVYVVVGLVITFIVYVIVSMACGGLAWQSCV

No constants are given. Whether binding was seen depends on the method and setting. Binding seen in cells or lysates may run through a third protein. A yes stands for co-enrichment or nearness to the bait. Other partners may have been found.

First the molecules themselves.
B1: Synaptobrevin (protein, UniProt P18489 1-152)
chain: MENNEAPSPSGSNNNDFPILPPPPNANDNYNQFGDHQIRNNNAAQKKLQQTQAKVDEVVGIMRVNVEKVLERDQKLSELGERADQLEQGASQFEQQAGKLKRKQWWANMKMMIILGVIAVVLLIIVLVSVWPSSSDSGSGGGNKAITQAPPH

This experiment has as its target HA tagged Drosophila STX1 (Drosophila) (UniProt Q24547). Briefly: affinity purification with mass spectrometry; native immunoprecipitation of HA tagged STX1 on anti-HA resin from cleared lysate of stably expressing Drosophila cells (100 mM NaCl, 5 mM MgCl2, 50 mM Tris pH 7.4, 0.5% Igepal CA-630), eluted with HA-peptide, SDS-PAGE, major bands identified by MALDI-MS / MSMS.
On to SNAP24 (from UniProt Q9VH76), for which the binding entry was “binds”.

On to VAMP7 (from UniProt A0A0B4LF19), for which the binding entry is listed as “binds”.

Turning to B1, the binding entry is given as “binds”.
